# Values from PubChem BioAssay AID1259308 (NCATS, 2017).
# Aim: 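Genes whose loss raises luciferase production in HEK293 cells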 (primary screen)
# Cells: human HEK293 embryonic kidney cells stably expressing firefly luciferase (HEK-CMV-Luc2-Hygro)
# Knock-down reagent: single siRNA against human genes, 0.8 pmol siRNA per well
# Time to read-out: 72 h
# Read-out: 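Reporter luminescence and viable-cell signal on separate replicate plates, given as percent of non-targeting control and median/MAD z-scores, plus per-cell luciferase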
# Reading the numbers: total luciferase, z-score and total luciferase, % of control: higher = more reporter protein produced
# Call rule: 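An siRNA counts as active if its total luciferase robust z-score exceeds 3; genes with two or more such siRNAs out of three were retested with fresh siRNAs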
# Calls: active = raised luciferase; inactive = no rise
# In all, the deposit lists about 59,000 reagents; below is a part drawn at random. Of all reagents, about 1,510 (2.6%) were called active. 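Calls use total luciferase alone and ignore viability, so some active siRNAs may act by altering cell number.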 Reagents against one gene are numbered here. Further read-outs or replicates are left out here. Reagent sequences are not shown.
gene,siRNA no.,"total luciferase, z-score","total luciferase, % of control",Outcome
CPNE1,1,0.237,86.6,inactive
CPNE1,2,-0.637,69.2,inactive
CPNE1,3,1.5,112,inactive
PIK3R6,1,2.81,138,inactive
PIK3R6,2,0.019,82.3,inactive
PIK3R6,3,0.0765,83.4,inactive
CFAP46,1,-0.541,71.1,inactive
CFAP46,2,-1.34,55.3,inactive
CFAP46,3,-0.123,79.4,inactive
CFAP46,4,1.11,104,inactive
CFAP46,5,-0.332,75.3,inactive
CFAP46,6,1.79,117,inactive
SPINK5,1,-0.166,78.6,inactive
SPINK5,2,-1.11,59.7,inactive
SPINK5,3,-0.511,71.7,inactive
OR5AS1,1,2.05,123,inactive
OR5AS1,2,-0.0206,81.5,inactive
OR5AS1,3,-0.347,75,inactive
ATRX,1,-1.46,52.8,inactive
ATRX,2,1.32,108,inactive
ATRX,3,-0.321,75.5,inactive
VPS13C,1,0.373,89.3,inactive
VPS13C,2,-0.209,77.7,inactive
VPS13C,3,0.0502,82.9,inactive
TMED8,1,0.733,96.5,inactive
TMED8,2,-0.00316,81.8,inactive
TMED8,3,-1.61,49.9,inactive
ACTG1,1,-0.656,68.8,inactive
ACTG1,2,-0.973,62.5,inactive
ACTG1,3,-2.1,40.1,inactive
OR5T3,1,-1.61,49.8,inactive
OR5T3,2,-0.703,67.9,inactive
OR5T3,3,0.565,93.1,inactive
CDHR3,1,0.52,92.2,inactive
CDHR3,2,1.21,106,inactive
CDHR3,3,1.02,102,inactive
LIMA1,1,1.17,105,inactive
LIMA1,2,-1.26,56.8,inactive
LIMA1,3,0.354,88.9,inactive
